Test results published in patent publication US12162997B2, “Facile assembly of soft nanoarchitectures and co-loading of hydrophilic and hydrophobic molecules via flash nanoprecipitation” (Northwestern University, priority 2016, dated 2024).
At least one compound was matched to its structure with a doubt left.

Assays:
[1] = ZINC15 database; cited from earlier work
[2] = system: T cells and dendritic cells in spleen and lymph nodes; experiment: In vivo rapamycin delivery, flow cytometry of immune cells; design: species or system C57BL/6 male mice; settings: mice
[3] = Rapamycin loading efficiency by HPLC UV absorbance; type: physicochemical; settings: FNP, FIG. 4A

Compound	logP Values [1]	splenic CD4+ and CD8+ T cells in proportion to the total number of T cells ([2]; s.c. 1 mg/kg on days 1, 4, 7 (0.33 mg/kg/day), analysed day 8)	impact on any immune cell populations ([2]; s.c. 1 mg/kg on days 1, 4, 7, analysed day 8)	loading efficiency into polymersomes [3] [%]
CCOC(=O)c1ccccc1-c1c2cc(Br)c(=O)c(Br)c-2oc2c(Br)c([O-])c(Br)cc12.[K+] [Ethyl Eosin, ethyl eosin]	N/A, 7.497			
CO[C@H]1C[C@@H]2CC[C@@H](C)[C@@](O)(O2)C(=O)C(=O)N2CCCC[C@H]2C(=O)O[C@H]([C@H](C)C[C@@H]2CC[C@@H](O)[C@H](OC)C2)CC(=O)[C@H](C)/C=C(\C)[C@@H](O)[C@@H](OC)C(=O)[C@H](C)C[C@H](C)/C=C/C=C/C=C/1C [Rapamycin, rapamycin]		no significant effects on T cells	no significant impact	65
